No constants are given. Whether binding was seen depends on the method and setting. Binding calls can cover weak binding; strength is not graded here.
Biological target: SNT, residues 1–215 of the HsdS (specificity) subunit of EcoR124I (UniProt P10485)
Assay: small-angle neutron scattering (SANS); reconstituted M.EcoR124INT, fully hydrogenated in 100% D2O, or with deuterated SNT and hydrogenated M in 40% and 100% D2O (contrast variation); buffer A; ab initio models with DAMMIN, P2 symmetry imposed; both purified

Protein sequences, listed by entry. Tags and fused reporters are not part of them.
UniProt P10484: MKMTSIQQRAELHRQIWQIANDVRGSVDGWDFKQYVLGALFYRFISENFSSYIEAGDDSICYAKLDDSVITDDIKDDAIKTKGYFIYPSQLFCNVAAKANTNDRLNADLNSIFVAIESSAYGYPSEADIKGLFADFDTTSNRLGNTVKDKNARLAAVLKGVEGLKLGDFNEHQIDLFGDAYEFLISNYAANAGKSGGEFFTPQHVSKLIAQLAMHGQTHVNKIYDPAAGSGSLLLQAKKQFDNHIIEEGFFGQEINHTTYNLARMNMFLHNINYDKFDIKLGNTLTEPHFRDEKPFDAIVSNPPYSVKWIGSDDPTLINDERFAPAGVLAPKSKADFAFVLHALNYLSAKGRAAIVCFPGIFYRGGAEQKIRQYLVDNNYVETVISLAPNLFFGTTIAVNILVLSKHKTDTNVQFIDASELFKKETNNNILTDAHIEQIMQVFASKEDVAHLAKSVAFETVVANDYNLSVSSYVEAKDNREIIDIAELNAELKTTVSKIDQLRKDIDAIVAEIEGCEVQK

M subunit (HsdM) of EcoR124I (from UniProt P10484 1-520)
binding: binds
